Among the data in article PMC9849267 are binding values, retold here.

Protein sequences, listed by entry. Tags and fused reporters are not part of them.
UniProt Q6P9Z1: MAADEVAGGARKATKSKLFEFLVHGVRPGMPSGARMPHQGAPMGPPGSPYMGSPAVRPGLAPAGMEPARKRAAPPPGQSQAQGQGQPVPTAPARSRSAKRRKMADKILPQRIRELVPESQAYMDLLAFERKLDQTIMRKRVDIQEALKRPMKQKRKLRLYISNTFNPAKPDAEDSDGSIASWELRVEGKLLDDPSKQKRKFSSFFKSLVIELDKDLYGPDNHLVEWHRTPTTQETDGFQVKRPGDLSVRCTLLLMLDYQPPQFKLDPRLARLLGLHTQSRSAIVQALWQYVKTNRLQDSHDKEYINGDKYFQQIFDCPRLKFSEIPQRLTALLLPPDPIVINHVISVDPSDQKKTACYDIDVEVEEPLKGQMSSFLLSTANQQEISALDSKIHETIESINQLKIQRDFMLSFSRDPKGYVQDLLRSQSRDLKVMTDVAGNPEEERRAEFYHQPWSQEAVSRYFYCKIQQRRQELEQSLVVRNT
UniProt Q3TKT4: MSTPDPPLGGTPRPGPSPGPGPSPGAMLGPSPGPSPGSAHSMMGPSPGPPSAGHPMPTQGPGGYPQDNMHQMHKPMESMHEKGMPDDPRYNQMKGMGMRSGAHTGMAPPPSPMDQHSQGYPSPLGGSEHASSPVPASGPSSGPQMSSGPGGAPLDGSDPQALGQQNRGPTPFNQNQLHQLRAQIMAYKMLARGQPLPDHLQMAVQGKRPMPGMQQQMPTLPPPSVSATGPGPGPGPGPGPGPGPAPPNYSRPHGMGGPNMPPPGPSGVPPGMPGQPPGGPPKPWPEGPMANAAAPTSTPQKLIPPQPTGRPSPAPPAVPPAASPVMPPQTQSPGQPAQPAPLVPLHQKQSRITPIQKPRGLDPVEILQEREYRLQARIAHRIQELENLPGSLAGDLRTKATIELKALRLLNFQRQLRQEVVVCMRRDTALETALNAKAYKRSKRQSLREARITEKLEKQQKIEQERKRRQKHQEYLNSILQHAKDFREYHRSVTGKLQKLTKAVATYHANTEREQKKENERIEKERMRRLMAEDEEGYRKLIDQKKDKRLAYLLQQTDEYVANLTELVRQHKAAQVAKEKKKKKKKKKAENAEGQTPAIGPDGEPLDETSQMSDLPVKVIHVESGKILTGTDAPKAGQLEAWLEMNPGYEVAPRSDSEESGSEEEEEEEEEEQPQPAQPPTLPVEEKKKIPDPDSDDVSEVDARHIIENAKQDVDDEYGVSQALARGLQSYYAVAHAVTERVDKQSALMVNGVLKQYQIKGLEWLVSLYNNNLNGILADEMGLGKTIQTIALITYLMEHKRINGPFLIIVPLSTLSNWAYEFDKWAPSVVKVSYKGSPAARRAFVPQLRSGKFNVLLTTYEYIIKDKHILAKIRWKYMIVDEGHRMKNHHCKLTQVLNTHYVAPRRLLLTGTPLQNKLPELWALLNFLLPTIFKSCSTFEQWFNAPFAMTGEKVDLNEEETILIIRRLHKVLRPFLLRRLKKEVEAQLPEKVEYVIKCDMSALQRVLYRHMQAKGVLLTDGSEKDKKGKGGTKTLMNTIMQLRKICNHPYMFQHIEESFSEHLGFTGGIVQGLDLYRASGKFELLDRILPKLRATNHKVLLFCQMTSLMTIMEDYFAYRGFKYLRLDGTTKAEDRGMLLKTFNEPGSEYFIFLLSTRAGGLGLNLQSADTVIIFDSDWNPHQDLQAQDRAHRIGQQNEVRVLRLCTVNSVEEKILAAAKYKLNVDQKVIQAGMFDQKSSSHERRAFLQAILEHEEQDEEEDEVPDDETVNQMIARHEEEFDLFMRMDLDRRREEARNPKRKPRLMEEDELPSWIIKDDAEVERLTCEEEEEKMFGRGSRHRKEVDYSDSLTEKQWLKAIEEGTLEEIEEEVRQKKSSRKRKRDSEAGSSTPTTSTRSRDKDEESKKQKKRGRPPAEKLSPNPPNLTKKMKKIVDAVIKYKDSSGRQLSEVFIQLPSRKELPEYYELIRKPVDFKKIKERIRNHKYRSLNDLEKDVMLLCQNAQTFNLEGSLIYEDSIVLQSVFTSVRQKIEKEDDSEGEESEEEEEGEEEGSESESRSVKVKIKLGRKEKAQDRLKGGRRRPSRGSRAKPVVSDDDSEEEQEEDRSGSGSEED
UniProt Q6STE5: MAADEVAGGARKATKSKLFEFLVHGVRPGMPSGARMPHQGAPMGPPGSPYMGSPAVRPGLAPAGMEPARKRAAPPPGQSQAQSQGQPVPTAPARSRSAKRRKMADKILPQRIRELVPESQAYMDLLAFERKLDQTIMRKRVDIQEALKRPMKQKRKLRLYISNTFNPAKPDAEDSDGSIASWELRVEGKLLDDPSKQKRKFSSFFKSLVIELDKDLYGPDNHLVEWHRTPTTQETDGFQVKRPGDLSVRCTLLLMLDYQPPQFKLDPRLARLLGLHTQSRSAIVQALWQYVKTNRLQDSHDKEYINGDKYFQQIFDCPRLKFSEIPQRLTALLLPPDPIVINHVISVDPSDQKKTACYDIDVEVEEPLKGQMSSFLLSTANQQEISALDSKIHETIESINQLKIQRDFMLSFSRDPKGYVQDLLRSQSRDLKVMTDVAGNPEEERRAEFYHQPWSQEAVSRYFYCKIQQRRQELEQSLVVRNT
UniProt P35582: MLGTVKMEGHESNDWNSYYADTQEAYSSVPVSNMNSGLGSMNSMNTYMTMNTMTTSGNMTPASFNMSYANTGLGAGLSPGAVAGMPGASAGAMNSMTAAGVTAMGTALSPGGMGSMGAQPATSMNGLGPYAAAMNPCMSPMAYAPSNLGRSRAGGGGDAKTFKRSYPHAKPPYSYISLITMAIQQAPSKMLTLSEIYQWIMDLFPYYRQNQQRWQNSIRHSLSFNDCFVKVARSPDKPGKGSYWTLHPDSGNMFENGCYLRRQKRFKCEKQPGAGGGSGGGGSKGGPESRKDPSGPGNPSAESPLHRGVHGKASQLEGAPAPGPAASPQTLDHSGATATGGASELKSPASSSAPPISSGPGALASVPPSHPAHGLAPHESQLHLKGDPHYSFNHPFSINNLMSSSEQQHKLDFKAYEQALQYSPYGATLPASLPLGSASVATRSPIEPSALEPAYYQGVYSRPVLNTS
UniProt P51532: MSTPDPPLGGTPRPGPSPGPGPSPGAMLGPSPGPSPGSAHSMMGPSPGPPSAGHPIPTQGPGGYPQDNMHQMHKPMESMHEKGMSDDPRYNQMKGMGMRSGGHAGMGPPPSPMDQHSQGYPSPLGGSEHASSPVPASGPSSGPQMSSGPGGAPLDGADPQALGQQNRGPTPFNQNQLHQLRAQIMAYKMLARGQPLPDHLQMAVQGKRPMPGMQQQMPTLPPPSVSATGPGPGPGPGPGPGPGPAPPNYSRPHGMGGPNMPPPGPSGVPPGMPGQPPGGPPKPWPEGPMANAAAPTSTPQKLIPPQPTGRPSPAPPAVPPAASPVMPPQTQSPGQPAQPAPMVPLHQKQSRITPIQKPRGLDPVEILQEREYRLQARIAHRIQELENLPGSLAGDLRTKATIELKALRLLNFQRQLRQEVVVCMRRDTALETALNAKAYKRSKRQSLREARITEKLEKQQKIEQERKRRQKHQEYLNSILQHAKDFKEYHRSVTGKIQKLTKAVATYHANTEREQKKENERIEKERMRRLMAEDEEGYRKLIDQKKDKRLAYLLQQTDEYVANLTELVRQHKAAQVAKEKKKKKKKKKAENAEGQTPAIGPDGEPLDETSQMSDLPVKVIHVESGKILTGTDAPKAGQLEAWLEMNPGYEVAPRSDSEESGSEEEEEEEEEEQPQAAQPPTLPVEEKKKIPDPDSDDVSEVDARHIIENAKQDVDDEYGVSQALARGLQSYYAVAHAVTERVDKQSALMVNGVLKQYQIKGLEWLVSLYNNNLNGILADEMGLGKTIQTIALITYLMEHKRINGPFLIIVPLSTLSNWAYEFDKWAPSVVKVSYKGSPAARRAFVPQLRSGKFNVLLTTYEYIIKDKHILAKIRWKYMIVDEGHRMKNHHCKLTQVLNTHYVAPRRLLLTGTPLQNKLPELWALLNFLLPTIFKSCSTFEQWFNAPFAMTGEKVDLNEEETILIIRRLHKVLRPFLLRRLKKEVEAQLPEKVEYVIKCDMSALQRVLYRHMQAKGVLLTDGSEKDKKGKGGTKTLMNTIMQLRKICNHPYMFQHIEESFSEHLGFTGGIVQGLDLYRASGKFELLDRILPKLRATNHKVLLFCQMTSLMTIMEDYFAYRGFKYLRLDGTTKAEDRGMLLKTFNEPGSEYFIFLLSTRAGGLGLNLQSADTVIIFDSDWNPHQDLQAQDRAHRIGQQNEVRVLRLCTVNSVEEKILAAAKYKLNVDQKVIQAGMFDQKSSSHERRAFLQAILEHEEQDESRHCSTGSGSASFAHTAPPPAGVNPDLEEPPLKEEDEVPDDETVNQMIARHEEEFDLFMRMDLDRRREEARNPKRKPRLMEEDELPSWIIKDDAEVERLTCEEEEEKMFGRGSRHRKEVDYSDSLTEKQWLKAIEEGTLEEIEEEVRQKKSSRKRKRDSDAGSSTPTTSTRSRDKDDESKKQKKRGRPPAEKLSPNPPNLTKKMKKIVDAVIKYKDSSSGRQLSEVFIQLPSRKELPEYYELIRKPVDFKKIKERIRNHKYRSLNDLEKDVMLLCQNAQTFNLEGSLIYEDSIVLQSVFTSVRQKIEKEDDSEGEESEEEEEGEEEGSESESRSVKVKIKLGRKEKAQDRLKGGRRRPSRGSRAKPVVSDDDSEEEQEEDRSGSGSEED

Results are given in words; binding and its absence hold for the method and conditions named. Binding seen in cells or lysates may run through a third protein. Some binding calls cover weakened binding; strength is not graded here. For some of these results: Where a sequence is shown, tags or fusion partners need not be part of it.

In assay [1] the target is SMARCD3 (mouse (endogenous in KP^f/fC tumors and cell lines)) (UniProt Q6P9Z1). As to the kind of experiment: proximity ligation; DuoLink PLA (rabbit MINUS and goat PLUS probes, amplification 2 hours) with antibodies against FOXA1, SMARCD3 and SMARCA4 on KP^f/fC mouse pancreatic tumor tissue; also on primary CD133+ KP^f/fC tumor cells.
For assay [2], the target named is SMARCA4 (mouse (endogenous in KP^f/fC tumors)) (UniProt Q3TKT4). Described as above.
In assay [3] the target is SMARCD3-FLAG (UniProt Q6STE5). Description: co-IP; 293T cells with lentiviral FOXA1-V5 and transfected SMARCD3-FLAG or empty GFP vector; 500 ug nuclear lysate on FLAG magnetic beads overnight at 4 C in high stringency buffer, eluted with FLAG peptide; blots with anti-FLAG, anti-V5, anti-SMARCA4.

For the molecule FOXA1 (from UniProt P35582 1-468), the binding result in assay [1] and in assay [2] was “binds” throughout. On to SMARCA4 (from UniProt P51532 1-1647), for which the binding entry in assay [3] is “binds”.

B1: FOXA1-V5 (protein, UniProt P55317 1-472)
chain: MLGTVKMEGHETSDWNSYYADTQEAYSSVPVSNMNSGLGSMNSMNTYMTMNTMTTSGNMTPASFNMSYANPGLGAGLSPGAVAGMPGGSAGAMNSMTAAGVTAMGTALSPSGMGAMGAQQAASMNGLGPYAAAMNPCMSPMAYAPSNLGRSRAGGGGDAKTFKRSYPHAKPPYSYISLITMAIQQAPSKMLTLSEIYQWIMDLFPYYRQNQQRWQNSIRHSLSFNDCFVKVARSPDKPGKGSYWTLHPDSGNMFENGCYLRRQKRFKCEKQPGAGGGGGSGSGGSGAKGGPESRKDPSGASNPSADSPLHRGVHGKTGQLEGAPAPGPAASPQTLDHSGATATGGASELKTPASSTAPPISSGPGALASVPASHPAHGLAPHESQLHLKGDPHYSFNHPFSINNLMSSSEQQHKLDFKAYEQALQYSPYGSTLPASLPLGSASVTTRSPIEPSALEPAYYQGVYSRPVLNTS
With B1, in assay [3], the binding result is given as “binds”.
